From publication PMC7475243

Target: T1, MBP-LecRK5-KD (the OsLecRK5 protein kinase domain tagged with MBP) (rice (Oryza sativa))
T1 sequence: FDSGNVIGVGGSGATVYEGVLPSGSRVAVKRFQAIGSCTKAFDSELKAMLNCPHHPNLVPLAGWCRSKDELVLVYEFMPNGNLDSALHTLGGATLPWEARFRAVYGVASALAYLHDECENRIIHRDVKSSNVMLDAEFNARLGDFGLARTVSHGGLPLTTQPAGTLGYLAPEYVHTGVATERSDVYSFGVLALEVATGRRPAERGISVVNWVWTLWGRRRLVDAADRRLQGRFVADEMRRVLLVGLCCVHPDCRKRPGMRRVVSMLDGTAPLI
Test: pull-down; amylose resin containing 1 ug MBP-LecRK5-KD or MBP incubated with 1 ug His or His-UGP1 in PBS, rotated at 4 °C for 8 h; western blot with anti-MBP or anti-His; both purified

His-UGP1 (recombinant full-length rice UGP1) (enzyme)
binding: binds

These are yes or no findings as the source states them, for the method shown. Binding can be weak; no strength is given. Sequences can lack the tags named with a protein.
